This is one part of the list.
Legend:
Test in all cases: log2 fold change, soluble protein after heating vs DMSO (PISA); higher = thermal stabilisation; K562 lysate, 10 uM; active = over 0.2 and 3.5 SD of the protein, either way, in both replicates (recomputed)
[1] = compound: C/C(=N\NC(=O)C1=CC(=CC=C1)S(=O)(=O)N2CCOCC2)/C3=C(C=CC(=C3)Cl)O
In short: (§1)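 K562 pellets were dounce-homogenised in PBS pH 7.4 containing 1 mM MgCl2, and the crude extract, at 1 mg/mL protein, was exposed to 10 μM compound for 30 min. Aliquots were heated for 3 min across 48°C-58°C, pooled, brought to 0.5% NP-40 at 4°C and spun at 21,000xg for 90 min, with the supernatant taken as soluble protein. TMTpro 16plex LC-MS/MS with equalised channel sums quantified that protein. Values are log-two fold changes in thermal stability relative to solvent controls, taken from duplicates.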

By UniProt entry, the sequences of proteins in these tests, tags left out. Where a name states a change or a piece, a line headed by the entry shows the natural chain unless it says otherwise.
UniProt Q9BX69: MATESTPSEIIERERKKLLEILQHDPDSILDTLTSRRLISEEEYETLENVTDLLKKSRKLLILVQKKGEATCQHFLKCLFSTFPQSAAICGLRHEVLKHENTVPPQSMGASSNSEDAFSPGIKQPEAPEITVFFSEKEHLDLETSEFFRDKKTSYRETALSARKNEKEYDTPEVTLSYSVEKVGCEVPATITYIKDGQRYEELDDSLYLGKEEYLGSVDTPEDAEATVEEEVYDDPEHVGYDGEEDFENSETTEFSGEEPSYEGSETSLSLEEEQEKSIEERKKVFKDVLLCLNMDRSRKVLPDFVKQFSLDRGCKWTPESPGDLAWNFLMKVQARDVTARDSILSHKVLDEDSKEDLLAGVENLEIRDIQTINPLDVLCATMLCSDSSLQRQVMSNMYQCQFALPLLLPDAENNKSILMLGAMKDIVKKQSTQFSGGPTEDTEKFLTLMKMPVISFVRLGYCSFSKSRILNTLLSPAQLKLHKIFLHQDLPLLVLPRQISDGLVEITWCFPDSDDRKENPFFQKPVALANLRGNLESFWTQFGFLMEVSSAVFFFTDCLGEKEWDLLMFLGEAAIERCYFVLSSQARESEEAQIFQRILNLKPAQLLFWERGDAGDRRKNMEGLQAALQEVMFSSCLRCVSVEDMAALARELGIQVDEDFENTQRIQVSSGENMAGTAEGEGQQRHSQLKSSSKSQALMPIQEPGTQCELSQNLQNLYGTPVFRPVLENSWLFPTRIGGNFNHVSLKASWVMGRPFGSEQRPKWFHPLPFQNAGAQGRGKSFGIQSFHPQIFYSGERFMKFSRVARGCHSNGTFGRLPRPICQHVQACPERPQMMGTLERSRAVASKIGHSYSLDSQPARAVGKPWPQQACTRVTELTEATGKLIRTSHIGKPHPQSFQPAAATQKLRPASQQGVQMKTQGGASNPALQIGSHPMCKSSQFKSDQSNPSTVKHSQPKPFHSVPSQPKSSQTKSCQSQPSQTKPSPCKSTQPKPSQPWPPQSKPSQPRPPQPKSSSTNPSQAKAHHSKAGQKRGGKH
UniProt Q9BTV7: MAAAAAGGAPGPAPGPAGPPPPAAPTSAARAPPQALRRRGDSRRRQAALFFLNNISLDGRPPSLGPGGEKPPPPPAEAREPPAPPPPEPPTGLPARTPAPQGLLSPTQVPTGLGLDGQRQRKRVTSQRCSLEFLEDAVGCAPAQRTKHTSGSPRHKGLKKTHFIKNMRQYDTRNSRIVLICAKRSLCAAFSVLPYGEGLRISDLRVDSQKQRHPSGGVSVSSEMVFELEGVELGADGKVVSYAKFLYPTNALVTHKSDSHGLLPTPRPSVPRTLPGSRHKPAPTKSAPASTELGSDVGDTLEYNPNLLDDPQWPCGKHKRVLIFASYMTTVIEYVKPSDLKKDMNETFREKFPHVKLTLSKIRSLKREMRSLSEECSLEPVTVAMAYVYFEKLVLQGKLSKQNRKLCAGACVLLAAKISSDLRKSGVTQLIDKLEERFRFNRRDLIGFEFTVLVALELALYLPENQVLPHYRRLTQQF
UniProt Q9NZP8: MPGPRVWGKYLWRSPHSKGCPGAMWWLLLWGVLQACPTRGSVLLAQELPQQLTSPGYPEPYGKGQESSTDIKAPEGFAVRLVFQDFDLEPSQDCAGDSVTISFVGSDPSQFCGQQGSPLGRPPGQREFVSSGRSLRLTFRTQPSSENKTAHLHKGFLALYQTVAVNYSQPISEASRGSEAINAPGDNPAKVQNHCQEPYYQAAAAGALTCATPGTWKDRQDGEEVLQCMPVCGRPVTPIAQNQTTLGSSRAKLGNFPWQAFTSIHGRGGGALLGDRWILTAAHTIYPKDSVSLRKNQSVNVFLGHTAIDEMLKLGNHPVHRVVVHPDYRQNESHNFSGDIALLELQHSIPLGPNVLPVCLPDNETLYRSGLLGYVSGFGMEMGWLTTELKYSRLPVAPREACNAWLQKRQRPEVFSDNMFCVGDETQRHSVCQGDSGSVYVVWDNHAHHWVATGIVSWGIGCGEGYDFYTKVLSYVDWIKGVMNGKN
UniProt Q9H6X5: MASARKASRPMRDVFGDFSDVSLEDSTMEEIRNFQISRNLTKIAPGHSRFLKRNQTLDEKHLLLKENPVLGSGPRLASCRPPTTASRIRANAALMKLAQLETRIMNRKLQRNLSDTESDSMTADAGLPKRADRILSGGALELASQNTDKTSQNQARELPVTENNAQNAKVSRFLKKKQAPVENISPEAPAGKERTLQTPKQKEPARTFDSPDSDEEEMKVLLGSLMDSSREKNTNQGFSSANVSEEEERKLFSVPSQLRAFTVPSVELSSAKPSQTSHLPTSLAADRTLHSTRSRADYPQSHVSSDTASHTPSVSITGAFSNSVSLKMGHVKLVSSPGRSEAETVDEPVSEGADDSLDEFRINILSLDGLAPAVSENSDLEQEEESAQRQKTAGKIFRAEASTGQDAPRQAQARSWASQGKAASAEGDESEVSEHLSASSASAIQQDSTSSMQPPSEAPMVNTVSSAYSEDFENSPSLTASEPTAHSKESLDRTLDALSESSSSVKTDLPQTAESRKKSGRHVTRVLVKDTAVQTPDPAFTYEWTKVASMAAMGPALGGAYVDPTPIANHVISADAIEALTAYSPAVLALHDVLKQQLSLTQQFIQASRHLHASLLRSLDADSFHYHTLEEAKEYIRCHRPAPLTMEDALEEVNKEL
UniProt Q96MD7: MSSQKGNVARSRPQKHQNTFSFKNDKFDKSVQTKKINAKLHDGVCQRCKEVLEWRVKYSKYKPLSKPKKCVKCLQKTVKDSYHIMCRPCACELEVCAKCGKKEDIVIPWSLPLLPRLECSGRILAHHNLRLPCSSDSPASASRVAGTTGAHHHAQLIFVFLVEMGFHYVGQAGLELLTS
UniProt Q9NSK7: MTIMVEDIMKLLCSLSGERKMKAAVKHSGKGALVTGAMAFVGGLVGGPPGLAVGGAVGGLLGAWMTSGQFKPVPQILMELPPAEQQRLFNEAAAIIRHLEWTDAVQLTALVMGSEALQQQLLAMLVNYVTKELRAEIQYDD
UniProt Q9BSF0: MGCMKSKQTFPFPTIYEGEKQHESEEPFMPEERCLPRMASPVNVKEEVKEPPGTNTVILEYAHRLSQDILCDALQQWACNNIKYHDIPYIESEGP
UniProt P23280: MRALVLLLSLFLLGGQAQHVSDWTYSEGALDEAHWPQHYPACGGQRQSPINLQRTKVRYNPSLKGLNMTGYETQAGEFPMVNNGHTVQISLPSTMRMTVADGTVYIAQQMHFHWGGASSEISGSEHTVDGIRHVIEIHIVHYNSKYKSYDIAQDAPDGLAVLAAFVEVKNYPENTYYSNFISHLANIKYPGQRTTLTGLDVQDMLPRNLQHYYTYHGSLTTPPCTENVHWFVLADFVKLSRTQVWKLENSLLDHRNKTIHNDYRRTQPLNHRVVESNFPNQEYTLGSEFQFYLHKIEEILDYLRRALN
UniProt Q16581: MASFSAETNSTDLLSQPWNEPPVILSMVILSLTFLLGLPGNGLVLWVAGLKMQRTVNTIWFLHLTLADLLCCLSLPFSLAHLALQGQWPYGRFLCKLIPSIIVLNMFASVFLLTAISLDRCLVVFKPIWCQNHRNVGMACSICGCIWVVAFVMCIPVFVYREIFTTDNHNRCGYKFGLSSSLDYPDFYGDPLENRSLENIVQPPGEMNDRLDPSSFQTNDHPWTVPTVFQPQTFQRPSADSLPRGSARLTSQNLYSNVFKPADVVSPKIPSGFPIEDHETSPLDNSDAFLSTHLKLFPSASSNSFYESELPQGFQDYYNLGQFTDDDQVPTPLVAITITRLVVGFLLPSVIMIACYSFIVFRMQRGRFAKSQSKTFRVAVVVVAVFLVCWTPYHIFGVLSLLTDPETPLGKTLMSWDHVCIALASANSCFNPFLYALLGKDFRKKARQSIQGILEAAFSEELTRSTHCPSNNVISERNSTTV
UniProt Q96HA4: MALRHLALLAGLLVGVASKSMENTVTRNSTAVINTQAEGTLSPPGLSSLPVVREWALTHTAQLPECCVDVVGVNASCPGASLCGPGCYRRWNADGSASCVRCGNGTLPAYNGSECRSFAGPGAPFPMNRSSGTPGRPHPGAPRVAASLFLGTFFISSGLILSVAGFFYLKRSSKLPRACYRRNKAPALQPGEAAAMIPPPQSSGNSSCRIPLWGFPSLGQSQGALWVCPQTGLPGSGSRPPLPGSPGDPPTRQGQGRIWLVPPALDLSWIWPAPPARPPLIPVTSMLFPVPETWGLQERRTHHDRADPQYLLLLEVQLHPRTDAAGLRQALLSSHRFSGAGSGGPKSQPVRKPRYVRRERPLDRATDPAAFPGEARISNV
UniProt Q96F05: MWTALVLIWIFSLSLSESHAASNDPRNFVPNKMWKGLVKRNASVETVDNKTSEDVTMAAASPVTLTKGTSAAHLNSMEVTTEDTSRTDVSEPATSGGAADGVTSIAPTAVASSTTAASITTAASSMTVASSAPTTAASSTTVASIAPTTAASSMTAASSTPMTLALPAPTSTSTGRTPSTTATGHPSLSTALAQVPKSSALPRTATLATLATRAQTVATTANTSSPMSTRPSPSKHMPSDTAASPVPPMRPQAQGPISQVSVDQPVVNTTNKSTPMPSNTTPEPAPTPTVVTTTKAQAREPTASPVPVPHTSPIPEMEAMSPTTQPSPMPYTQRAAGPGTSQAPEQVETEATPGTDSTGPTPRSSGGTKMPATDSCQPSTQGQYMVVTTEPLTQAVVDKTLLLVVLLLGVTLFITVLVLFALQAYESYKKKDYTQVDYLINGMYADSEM
UniProt P00736: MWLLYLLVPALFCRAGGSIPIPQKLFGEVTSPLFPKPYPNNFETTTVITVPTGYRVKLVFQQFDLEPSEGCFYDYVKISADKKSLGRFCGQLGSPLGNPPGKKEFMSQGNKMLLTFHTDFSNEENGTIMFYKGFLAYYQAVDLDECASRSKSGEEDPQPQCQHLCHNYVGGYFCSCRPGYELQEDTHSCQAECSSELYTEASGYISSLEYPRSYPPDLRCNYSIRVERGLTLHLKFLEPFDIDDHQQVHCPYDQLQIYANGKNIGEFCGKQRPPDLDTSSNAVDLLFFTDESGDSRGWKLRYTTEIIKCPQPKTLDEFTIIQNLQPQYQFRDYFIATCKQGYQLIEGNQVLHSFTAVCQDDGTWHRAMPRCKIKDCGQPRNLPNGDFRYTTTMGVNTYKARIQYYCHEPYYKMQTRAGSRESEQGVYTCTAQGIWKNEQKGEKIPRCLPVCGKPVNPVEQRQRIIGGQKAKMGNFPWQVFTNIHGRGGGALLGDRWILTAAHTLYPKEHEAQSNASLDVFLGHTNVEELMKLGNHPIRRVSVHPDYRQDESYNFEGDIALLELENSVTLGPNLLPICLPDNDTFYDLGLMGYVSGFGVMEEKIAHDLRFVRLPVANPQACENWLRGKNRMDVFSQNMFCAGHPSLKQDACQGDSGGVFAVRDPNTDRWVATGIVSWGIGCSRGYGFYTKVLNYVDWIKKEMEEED
UniProt Q6PH81: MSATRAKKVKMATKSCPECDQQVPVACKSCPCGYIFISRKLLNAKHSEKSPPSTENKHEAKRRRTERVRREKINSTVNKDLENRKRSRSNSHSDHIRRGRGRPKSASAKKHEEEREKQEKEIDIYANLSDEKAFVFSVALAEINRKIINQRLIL
UniProt Q9NWQ9: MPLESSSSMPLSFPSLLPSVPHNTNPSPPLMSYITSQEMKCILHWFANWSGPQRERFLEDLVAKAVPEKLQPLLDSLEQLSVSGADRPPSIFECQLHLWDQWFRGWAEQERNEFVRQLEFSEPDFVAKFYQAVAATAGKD
UniProt Q13137: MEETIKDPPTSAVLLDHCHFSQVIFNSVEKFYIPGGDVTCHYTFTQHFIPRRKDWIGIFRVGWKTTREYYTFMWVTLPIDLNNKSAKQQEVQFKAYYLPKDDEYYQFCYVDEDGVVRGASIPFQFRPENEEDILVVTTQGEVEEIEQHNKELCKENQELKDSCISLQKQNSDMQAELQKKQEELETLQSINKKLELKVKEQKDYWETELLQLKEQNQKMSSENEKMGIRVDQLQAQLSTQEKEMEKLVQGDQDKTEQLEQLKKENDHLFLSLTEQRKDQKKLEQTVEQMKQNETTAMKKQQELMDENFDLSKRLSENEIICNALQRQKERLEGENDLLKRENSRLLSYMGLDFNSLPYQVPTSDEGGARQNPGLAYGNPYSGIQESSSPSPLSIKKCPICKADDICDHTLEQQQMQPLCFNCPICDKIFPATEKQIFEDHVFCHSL
UniProt Q9BVC5: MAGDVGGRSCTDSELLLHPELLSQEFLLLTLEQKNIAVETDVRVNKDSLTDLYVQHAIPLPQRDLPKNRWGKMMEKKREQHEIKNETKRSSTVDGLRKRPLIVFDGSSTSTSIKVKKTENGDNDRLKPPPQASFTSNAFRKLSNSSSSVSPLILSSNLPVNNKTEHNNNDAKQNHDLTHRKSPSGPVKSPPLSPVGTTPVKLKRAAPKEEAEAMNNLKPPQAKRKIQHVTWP
UniProt Q96LW7: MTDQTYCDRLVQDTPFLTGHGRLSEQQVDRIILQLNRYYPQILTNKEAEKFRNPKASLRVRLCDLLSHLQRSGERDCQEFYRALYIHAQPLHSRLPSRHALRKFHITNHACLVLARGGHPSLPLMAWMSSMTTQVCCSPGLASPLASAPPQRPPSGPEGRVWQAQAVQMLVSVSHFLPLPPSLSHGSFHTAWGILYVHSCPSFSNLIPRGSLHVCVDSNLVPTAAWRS

[2] = compound: C1=CC2=C(C=CC(=C2)/C=C\3/C(=O)NC(=NCC4=CC=CS4)S3)N=C1
In short: as §1

[3] = compound: C1=CC2=NC=CN=C2C=C1/C=C/3\C(=O)NC(=O)S3
In short: as §1

[4] = compound: C1=CC=C(C=C1)C2=NC(=C(N2)C3=CC=NC=C3)C4=CC(=C(C=C4)Cl)O
In short: as §1

[5] = compound: C1=CC=C2C(=C1)C3=NNC4=CC=CC(=C43)C2=O
In short: as §1

IRAK-1-4 Inhibitor I = compound: C1COCCN1CCN2C3=CC=CC=C3N=C2NC(=O)C4=CC(=CC=C4)[N+](=O)[O-] [IRAK-1-4 Inhibitor I]
In short: as §1

ibrutinib = compound: C=CC(=O)N1CCC[C@@H](n2nc(-c3ccc(Oc4ccccc4)cc3)c3c(N)ncnc32)C1 [ibrutinib]
In short: as §1

[6] = compound: CC(=O)c1cnc2ccc(-c3cc(Cl)c(O)c(Cl)c3)nc2c1N[C@H]1CC[C@H](CN(C)C)CC1
In short: as §1

ralimetinib = compound: CC(C)(C)Cn1c(N)nc2ccc(-c3[nH]c(C(C)(C)C)nc3-c3ccc(F)cc3)nc21 [ralimetinib]
In short: as §1

[7] = compound: CC(C)(O)CC(=O)NCCn1ccc2ncnc(Nc3ccc(Oc4cccc(C(F)(F)F)c4)c(Cl)c3)c21
In short: as §1

[8] = compound: CC1=C(C2=C(C=C1)C(=O)C3=CC=CC=C3N2CCCN)C
In short: as §1

[9] = compound: CC1=C(C=C(C=C1)NC(=O)C2=CC(=CC=C2)C(C)(C)C#N)NC3=CC4=C(C=C3)N=CN(C4=O)C
In short: as §1

[10] = compound: CC1=C(C=C(C=C1)NC(=O)C2=CC(=CC=C2)N(C)C)NC(=O)C3=CC=C(C=C3)O
In short: as §1

[11] = compound: CC1=CC=C(C=C1)SC2=C3C=C(SC3=CN=C2)C(=O)N
In short: as §1

[12] = compound: CC1=C(C(CC(=O)N1)C2=CC=C(C=C2)C(F)(F)F)C(=O)NC3=C(C=C4C(=C3)C=NN4)F
In short: as §1

erlotinib = compound: C#Cc1cccc(Nc2ncnc3cc(OCCOC)c(OCCOC)cc23)c1 [erlotinib]
In short: as §1

[13] = compound: C1=CC(=CC=C1C2=NC3=C(N2)C=C(C=C3)C(=O)N)OC4=CC=C(C=C4)Cl
In short: as §1

[14] = compound: CC(C)C1=C2N=C(C=C(N2N=C1)NCC3=CC=CC=C3)NCCCCCCN
In short: as §1

[15] = compound: C1CCN(C1)C(=O)NC2=CC=CC(=C2)NC3=NC=C(C(=N3)NCCC4=CN=CN4)Br
In short: as §1

[16] = compound: C1CN(CCC1(CC2=CC=C(C=C2)Cl)N)C3=NC=NC4=C3C=CN4
In short: as §1

Measured: log2 fold change

C1orf174 (UniProt Q8IYL3)
inactive: [1] -0.025 | [2] -0.035 | [3] -0.042 | [4] -0.087 | [5] -0.048 | IRAK-1-4 Inhibitor I 0.224 | ibrutinib -0.02 | [6] -0.117 | ralimetinib -0.151 | [7] 0.066 | [8] 0.036 | [9] 0.019 | [10] 0.054 | [11] -0.117

CANX (UniProt D6RHJ3)
inactive: [1] -0.321 | [2] 0.031 | [5] -0.022 | [6] -0.013 | [12] 0.021 | [11] -0.008

C17orf53 (UniProt Q8N3J3)
inactive: erlotinib -0.102 | [13] 0.094 | [14] 0.033 | [8] -0.094 | [9] 0.188

CARD6 (UniProt Q9BX69)
inactive: [1] -0.332 | [2] 0.081 | [5] -0.106 | [12] -0.099 | [8] -0.043 | [9] 0.079

CAPNS2 (UniProt Q96L46)
inactive: [4] -0.004 | IRAK-1-4 Inhibitor I 0.155 | ralimetinib -0.302 | [7] -0.02 | [10] -0.164

CACNA1C isoform 2 (UniProt Q13936)
inactive: erlotinib -0.035 | [13] 0.02 | [6] -0.018 | [14] 0.027 | [11] -0.069

CABLES2 (UniProt Q9BTV7)
inactive: [1] -0.013 | [2] 0.045 | [3] 0.083 | [5] 0.052 | [15] -0.018 | [16] 0.09 | ibrutinib -0.154 | [6] -0.01 | [9] 0.378 | [11] -0.145

C1RL (UniProt Q9NZP8)
inactive: [15] -0.066 | [16] 0.084

C19orf44 (UniProt Q9H6X5)
inactive: [4] -0.11 | IRAK-1-4 Inhibitor I 0.149 | ralimetinib -0.108 | [7] -0.24 | [12] -0.006 | [10] 0.199

C9orf85 isoform 1 (UniProt Q96MD7)
inactive: [3] -0.026 | [4] -0.003 | IRAK-1-4 Inhibitor I 0.021 | ibrutinib 0.065 | ralimetinib 0.023 | [7] -0.051 | [12] 0 | [8] -0.046 | [10] 0.023

C19orf12 (UniProt Q9NSK7)
inactive: [4] -0.009 | [15] -0.002 | [16] -0.078 | IRAK-1-4 Inhibitor I 0.003 | [6] 0.076 | ralimetinib 0.011 | [7] -0.031 | [12] -0.096 | [8] 0.01 | [9] -0.004 | [10] 0.037 | [11] 0.033

C2orf88 (UniProt Q9BSF0)
inactive: [4] 0.067 | IRAK-1-4 Inhibitor I 0.108 | ralimetinib -0.086 | [7] 0.204 | [9] 0.136 | [10] -0.04

C22orf39 (UniProt Q6P5X5)
inactive: [1] 0.175 | [2] 0.103 | [3] 0.117 | [4] -0.087 | [5] -0.055 | [15] -0.032 | [16] -0.033 | IRAK-1-4 Inhibitor I 0.018 | ibrutinib 0.035 | [6] 0.075 | ralimetinib 0.039 | [7] -0.007 | [12] -0.052 | [8] -0.053 | [10] -0.062 | [11] 0.044

CA6 (UniProt P23280)
inactive: erlotinib -1.11 | [13] 0.227 | [14] -0.078

CAPN1 (UniProt E9PLX0)
inactive: [1] 0.216 | [2] -0.16 | [4] 0.283 | [5] -0.028 | [15] 0.144 | [16] -0.241 | IRAK-1-4 Inhibitor I -0.067 | [6] -0.096 | ralimetinib 0.24 | [7] -0.166 | [12] -0.192 | [9] 0.019 | [10] -0.352 | [11] -0.113

C3AR1 (UniProt Q16581)
inactive: [3] 0.145 | ibrutinib 0.018 | [12] 0.001 | [9] -0.074

C1orf159 isoform 4 (UniProt Q96HA4)
inactive: [15] 0.074 | [16] 0.027 | [8] -0.01

CAPNS1 (UniProt U3KPR7)
inactive: [3] -0.105 | ibrutinib 0.034 | [6] -0.007 | [12] 0.155 | [11] 0.099

C6orf62 (UniProt Q9GZU0)
inactive: [1] 0.023 | [2] 0.077 | [5] 0.109 | [8] -0.482 | [9] 0

CALR (UniProt K7EJB9)
inactive: [6] -0.07 | [12] -0.028 | [11] -0.036

C11orf24 (UniProt Q96F05)
inactive: [4] -0.01 | IRAK-1-4 Inhibitor I -0.029 | ralimetinib 0.057 | [7] 0.058 | [9] 0.124 | [10] -0.017

C1R (UniProt P00736)
inactive: [6] 0.008 | [11] 0.027

CAMKMT (UniProt Q7Z624)
inactive: [4] -0.089 | IRAK-1-4 Inhibitor I 0.054 | [6] 0.001 | ralimetinib 0.064 | [7] 0.028 | [12] -0.03 | [8] -0.151 | [10] 0.008 | [11] -0.169

C1orf226 isoform 2 (UniProt A1L170)
inactive: [1] -0.081 | [2] 0.176 | [4] 0.097 | [5] 0.007 | IRAK-1-4 Inhibitor I -0.034 | [6] -0.131 | ralimetinib -0.046 | [7] 0.028 | [10] 0.007 | [11] -0.101

C5orf24 (UniProt Q7Z6I8)
inactive: [9] 0.08

C16orf87 (UniProt Q6PH81)
inactive: [1] -0.259 | [2] 0.139 | [3] -0.1 | [4] -0.076 | [5] -0.07 | [15] 0.118 | [16] 0.147 | IRAK-1-4 Inhibitor I -0.14 | ibrutinib 0.068 | [6] 0.034 | ralimetinib 0.018 | [7] 0.042 | [8] 0.012 | [9] 0.067 | [10] 0.104 | [11] 0.092

C19orf57 (UniProt Q0VDD7)
inactive: [1] 0.215 | [2] -0.142 | [5] -0.043 | [8] 0

C14orf119 (UniProt Q9NWQ9)
inactive: [9] -0.009

CALCOCO2 isoform 5 (UniProt Q13137)
inactive: [12] -0.122

C2orf49 isoform 2 (UniProt Q9BVC5)
inactive: [4] 0.034 | IRAK-1-4 Inhibitor I -0.113 | ralimetinib -0.04 | [7] -0.114 | [10] 0.139

CA1 (UniProt E5RIF9)
inactive: [15] 0.101 | [16] 0.074

CAP1 (UniProt Q5T0R8)
inactive: erlotinib 0.045 | [13] 0.144 | [6] 0.031 | [14] 0 | [11] 0.079

CAMSAP3 isoform 2 (UniProt Q9P1Y5)
inactive: [1] 0.064 | [2] -0.057 | [5] 0.02

Two records picked at random from the list so far:
C9orf85 isoform 1 (UniProt Q96MD7)
inactive: [3] -0.026 | [4] -0.003 | IRAK-1-4 Inhibitor I 0.021 | ibrutinib 0.065 | ralimetinib 0.023 | [7] -0.051 | [12] 0 | [8] -0.046 | [10] 0.023

C19orf57 (UniProt Q0VDD7)
inactive: [1] 0.215 | [2] -0.142 | [5] -0.043 | [8] 0

(listing goes on)

CARD19 (UniProt Q96LW7)
inactive: [9] 0.018
